This passage reports median seed-adjusted z-score results from PubChem BioAssay AID1347426 (Functional Genomics Laboratory (NCATS/FGL), 2020).

The whole screen tested about 31,000 sequences, of which about 1,400 (4.5%) were called active.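 How the source made its calls: active means median seed-adjusted z-score above 1 or below -1; inactive means the rest.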 The list shows a part of the results.

This test in a line: Novel Modifiers of Survival Motor Neuron (SMN) Protein: Gene Identification via Genome-wide siRNA Screen.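 Further: luminescence tracks full-length SMN protein made from the SMN2 reporter.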 The settings on record: HEK293T SMN2-luciferase reporter, siRNA knockdown, 72 h; actives lie on both sides. In a few lines:
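Each of three siRNAs per gene is reverse-transfected (1 pmol) into reporter HEK293T cells whose luciferase output tracks SMN protein level. After 72 h culture, ONE-Glo luminescence is control-normalized, log10-transformed and MAD-standardized; Common Seed Analysis deprioritizes seed-driven hits.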
CGAAUAGAUUGUUCUAUGATT against NR1D2: the median seed-adjusted z-score is inactive: 0.0523.
With CCAAAGCUCGGAUAGGAGATT against GABARAP, the median seed-adjusted z-score was inactive: 0.418.
The same measure for CUACCACGCAGUCAACCUUTT against LTB4R2: inactive: -0.26.
As for GCUGGAAGAUUACACGCCUTT against TAF10, the figure is inactive: -0.587.
The same measure for GGAUGAAGGCUUCAUCAAATT against KCNA10: inactive: 0.00887; for CAAACUCAGUCUGAACUUATT against ADORA3: inactive: 0.
In the case of GGAUCCCUAUUUUAGGACATT against MTMR10, the median seed-adjusted z-score was inactive: 0.144.
On to GGAGAUAUCCUAUAUCAAUTT against OXSM, for which the median seed-adjusted z-score was inactive: 0.22.
As to CUAUAAAUGUAAACGAUGUTT against ZNF442, the median seed-adjusted z-score is active: 1.06.
The same measure for GAAAUCCAGUUUGACGAUATT against EIF1AY: inactive: 0.00168.
The same measure for CCAAACGAUUUAUACCUAATT against IPMK: inactive: -0.00138; for CGAUACUACAUGCUCAACATT against SNX5: inactive: -0.141; for GCAGGCUUCUGUAACAUUATT against RPP38: inactive: 0.07.
As for ACCUACUUCUCCCACCUGGTT against HBQ1, the figure is inactive: -0.578.
CGUUUGACAAGACCACCAATT against VAV2: the median seed-adjusted z-score was inactive: 0.975.
The same measure for GCUUCAGUGUGAGCAAGGATT against E4F1: inactive: 0.698; for ACAUCAACUAUUACAGGCATT against ERAF: inactive: 0.0453; for GCAAAGAUCUAAGCAUGAUTT against SERPINB3: inactive: -0.373.
CCGUCAAAGUGAUCAACAATT against IKZF3: the median seed-adjusted z-score was inactive: 0.0181.
The same measure for GCAUCCUUGUGUACAUGUGTT against USP41: inactive: 0.808; for GGACCAUCAUGUUCUACAATT against C1R: inactive: -0.541.
The same measure for CAACGUAUCAGAUUGAGAATT against ZNF281: active: 1.19; for GCCCUUCCCUGAUUUUGUUTT against DPYSL2: inactive: -0.569; for CGUGAUCUCAAGUCCAACATT against MAP3K11: inactive: 0.773.
The same measure for GAUGCUAUGGAAUACCAUATT against METTL4: inactive: 0.244; for GAACUGAGGUUGUGAUGAATT against CPNE4: inactive: -0.0933; for CCCAAUUUAUGACAACCGUTT against REL: inactive: -0.358.
Consider GCAUGGUUGAAGAAACGCATT against DNAH8, for which the median seed-adjusted z-score is inactive: 0.
On to AGGUUUGGCUCAACUCUGATT against P2RX2, for which the median seed-adjusted z-score was inactive: 0.0454.
The same measure for CCUAUGUUCUCUACCAUGATT against AQP10: inactive: -0.09.
